{
  "source": "patent US6433022B1",
  "about": "“Spermicide” (Medical Research Council, priority 1997, dated 2002)",
  "system": "HIV-1",
  "test": "Virucidal activity using cell-free virus (viral adhesion assay, syncytia in C8166 cells)",
  "format": "cell-based",
  "procedure": "A simple, microtitre plate assay was developed (viral adhesion assay) in which the virus was attached to the solid phase by Pol-L-lysine Hydrobromide (PLL, Sigma). Sterile 24 and 96 well plates (Nunc) were coated for 1 hour with 50 μl of 50 μg/ml PLL at room temperature. When using 96 well microtitre plates the outer ring of wells were left uncoated and filled with 250 μl of sterile PBS to counteract the effects of evaporation. The coated wells were washed twice with sterile PBS using a Denley-4 plate washer. 25 μl of RPMI 1640 medium containing HIV-1 (50×TCID50) was added to the wells and incubated for 1 hour at room temperature. The plate was again washed twice with sterile PBS. 25 μl of varying concentrations of the candidate virucide were added to each well for 15 minutes and the virucide removed with two washes of sterile PBS. The T-lymphocyte cell line C8166, at a concentration of 4×10^4 cells in 300Fl RPMI 1640, were added to each well so that the cells formed a uniform monolayer on the adherent virus. After incubation for 72 hours, the number of syncytia in the monolayer gave an accurate measure of the amount of infectious virus present. Wells untreated with virucide were used as positive controls. […] The assay allowed the efficient removal of the candidate virucides or disinfectant and allowed the compound to be assessed for accurately determined contact times.",
  "note": "At least one compound was matched to its structure with a doubt left.",
  "data": [
    {"molecule": "O=C1C=CC(=O)c2c(O)cccc21", "note": "[juglone]", "values": [
      {"measurement": "antiviral activity against HIV-1", "setting": "absence of human semen, 15 minutes contact", "value": "dose-dependent antiviral activity"},
      {"measurement": "antiviral activity against HIV-1, effect of semen", "setting": "presence of human semen vs absence", "value": "potentiated by an order of magnitude"}
    ]}
  ]
}
